PubChem BioAssay AID686938 | Drosophila RNAi Screening Center – 2013

Aim: 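Knock-downs reducing store-operated calcium influx in Drosophila cells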 (primary screen)
Cells: Drosophila S2R+ cells
Knock-down reagent: long dsRNA against Drosophila genes, about 0.25 µg dsRNA per well, roughly 10,000 cells
Time to read-out: 5 days of knock-down before the calcium assay
Challenge: thapsigargin (SERCA pump blocker) to empty calcium stores; entry signal taken 4 min after adding it
Read-out: 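Duplicate raw fluo-4 intensities per well from a plate reader, at rest and four minutes after thapsigargin emptied calcium stores; entry-to-rest ratio filled for only some wells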
Direction: calcium entry signal: higher = stronger calcium signal after store depletion; resting calcium signal: higher = higher resting calcium signal
Units: calcium entry signal in fluorescence units; resting calcium signal in fluorescence units
Hit rule: 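Hit if the duplicate-averaged plate z-score for entry over resting signal is under −3; wells with weak total dye signal (Fmax z < −2) or more than 5 off-targets removed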
Calls: active = strongly reduced calcium entry; inactive = no strong reduction
The screen tested about 23,000 reagents; shown is a random part of those that have a named target and a result. Over the whole deposit, 75 (0.33%) were called active. 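Raw plate signals without normalisation; calls rest on plate z-scores that were not deposited; ratio present for only 364 wells.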 Unmarked entries are inactive. Names joined by + are all predicted targets of the reagent. No sequences are given here. Not given: the dose of the treatment.

{"predicted target": "CG7560 (GeneID 39276)", "amplicon": "DRSC10879", "calcium entry signal, replicate 1": 3.24e7, "calcium entry signal, replicate 2": 4.46e7, "resting calcium signal, replicate 1": 1.67e7, "resting calcium signal, replicate 2": 1.84e7}
{"predicted target": "Npc2f (GeneID 42864)", "amplicon": "DRSC15980", "calcium entry signal, replicate 1": 3.04e7, "calcium entry signal, replicate 2": 3.40e7, "resting calcium signal, replicate 1": 1.45e7, "resting calcium signal, replicate 2": 1.53e7}
{"predicted target": "CG2157 (GeneID 32018)", "amplicon": "DRSC19836", "calcium entry signal, replicate 1": 3.83e7, "calcium entry signal, replicate 2": 5.95e7, "resting calcium signal, replicate 1": 1.93e7, "resting calcium signal, replicate 2": 2.78e7}
{"predicted target": "pasi2 (GeneID 41113)", "amplicon": "DRSC16380", "calcium entry signal, replicate 1": 2.05e7, "calcium entry signal, replicate 2": 2.12e7, "resting calcium signal, replicate 1": 1.08e7, "resting calcium signal, replicate 2": 1.23e7}
{"predicted target": "B-H1 (GeneID 32724)", "amplicon": "DRSC19334", "calcium entry signal, replicate 1": 3.68e7, "calcium entry signal, replicate 2": 3.04e7, "resting calcium signal, replicate 1": 1.89e7, "resting calcium signal, replicate 2": 1.56e7}
{"predicted target": "B-H1 (GeneID 32724)", "amplicon": "DRSC21922", "calcium entry signal, replicate 1": 3.84e7, "calcium entry signal, replicate 2": 6.89e7, "resting calcium signal, replicate 1": 1.83e7, "resting calcium signal, replicate 2": 3.20e7}
{"predicted target": "St4 (GeneID 36548)", "amplicon": "DRSC07008", "calcium entry signal, replicate 1": 3.37e7, "calcium entry signal, replicate 2": 3.56e7, "resting calcium signal, replicate 1": 1.78e7, "resting calcium signal, replicate 2": 1.81e7}
{"predicted target": "CG2747 (GeneID 40950)", "amplicon": "DRSC15450", "calcium entry signal, replicate 1": 5.50e7, "calcium entry signal, replicate 2": 3.55e7, "resting calcium signal, replicate 1": 2.52e7, "resting calcium signal, replicate 2": 1.62e7}
{"predicted target": "sens (GeneID 45328)", "amplicon": "DRSC09263", "calcium entry signal, replicate 1": 4.77e7, "calcium entry signal, replicate 2": 4.25e7, "resting calcium signal, replicate 1": 2.71e7, "resting calcium signal, replicate 2": 2.48e7}
{"predicted target": "sens (GeneID 45328)", "amplicon": "DRSC23086", "calcium entry signal, replicate 1": 2.69e7, "calcium entry signal, replicate 2": 2.67e7, "resting calcium signal, replicate 1": 1.38e7, "resting calcium signal, replicate 2": 1.21e7}
{"predicted target": "Uch-L5 (GeneID 39102)", "amplicon": "DRSC11314", "calcium entry signal, replicate 1": 4.28e7, "calcium entry signal, replicate 2": 4.06e7, "resting calcium signal, replicate 1": 3.09e7, "resting calcium signal, replicate 2": 1.84e7}
{"predicted target": "CG4835 (GeneID 38619)", "amplicon": "DRSC10452", "calcium entry signal, replicate 1": 3.25e7, "calcium entry signal, replicate 2": 4.57e7, "resting calcium signal, replicate 1": 1.71e7, "resting calcium signal, replicate 2": 2.27e7}
{"predicted target": "Vha14-1 (GeneID 36731)", "amplicon": "DRSC07571", "calcium entry signal, replicate 1": 4.62e7, "calcium entry signal, replicate 2": 4.27e7, "resting calcium signal, replicate 1": 3.61e7, "resting calcium signal, replicate 2": 1.84e7}
{"predicted target": "und (GeneID 34294)", "amplicon": "DRSC03629", "calcium entry signal, replicate 1": 4.35e7, "resting calcium signal, replicate 1": 2.15e7}
{"predicted target": "CG13794 (GeneID 34048)", "amplicon": "DRSC02298", "calcium entry signal, replicate 1": 3.41e7, "calcium entry signal, replicate 2": 4.70e7, "resting calcium signal, replicate 1": 1.53e7, "resting calcium signal, replicate 2": 1.90e7}
{"predicted target": "UbcE2M (GeneID 38916)", "amplicon": "DRSC10828", "calcium entry signal, replicate 1": 4.40e7, "calcium entry signal, replicate 2": 4.58e7, "resting calcium signal, replicate 1": 2.76e7, "resting calcium signal, replicate 2": 1.80e7}
{"predicted target": "mfr (GeneID 39016)", "amplicon": "DRSC10543", "calcium entry signal, replicate 1": 3.02e7, "calcium entry signal, replicate 2": 5.08e7, "resting calcium signal, replicate 1": 1.49e7, "resting calcium signal, replicate 2": 2.22e7}
{"predicted target": "CG7407 (GeneID 40430)", "amplicon": "DRSC11824", "calcium entry signal, replicate 1": 3.30e7, "calcium entry signal, replicate 2": 3.96e7, "resting calcium signal, replicate 1": 1.57e7, "resting calcium signal, replicate 2": 2.60e7}
{"predicted target": "CG10616 (GeneID 39420)", "amplicon": "DRSC09750", "calcium entry signal, replicate 1": 4.44e7, "calcium entry signal, replicate 2": 4.36e7, "resting calcium signal, replicate 1": 3.03e7, "resting calcium signal, replicate 2": 1.79e7}
{"predicted target": "IFT52 (GeneID 33917)", "amplicon": "DRSC03271", "calcium entry signal, replicate 1": 3.13e7, "calcium entry signal, replicate 2": 2.60e7, "resting calcium signal, replicate 1": 1.52e7, "resting calcium signal, replicate 2": 1.21e7}
{"predicted target": "mIF2 (GeneID 43382)", "amplicon": "DRSC14510", "calcium entry signal, replicate 1": 4.17e7, "calcium entry signal, replicate 2": 4.70e7, "resting calcium signal, replicate 1": 1.91e7, "resting calcium signal, replicate 2": 1.80e7}
{"predicted target": "SkpC (GeneID 32996)", "amplicon": "DRSC20375", "calcium entry signal, replicate 1": 5.13e7, "calcium entry signal, replicate 2": 3.40e7, "resting calcium signal, replicate 1": 2.25e7, "resting calcium signal, replicate 2": 1.45e7}
{"predicted target": "HIP + HIP-R", "amplicon": "DRSC18245", "calcium entry signal, replicate 1": 3.82e7, "calcium entry signal, replicate 2": 4.34e7, "resting calcium signal, replicate 1": 1.81e7, "resting calcium signal, replicate 2": 2.04e7}
{"predicted target": "CG42633 (GeneID 8674052)", "amplicon": "DRSC16061", "calcium entry signal, replicate 1": 4.23e7, "calcium entry signal, replicate 2": 3.50e7, "resting calcium signal, replicate 1": 2.13e7, "resting calcium signal, replicate 2": 1.83e7}
{"predicted target": "Fdx2 (GeneID 38530)", "amplicon": "DRSC08306", "calcium entry signal, replicate 1": 4.36e7, "calcium entry signal, replicate 2": 3.52e7, "resting calcium signal, replicate 1": 2.48e7, "resting calcium signal, replicate 2": 1.66e7}
{"predicted target": "CG13671 (GeneID 38932)", "amplicon": "DRSC10030", "calcium entry signal, replicate 1": 3.84e7, "calcium entry signal, replicate 2": 2.46e7, "resting calcium signal, replicate 1": 2.58e7, "resting calcium signal, replicate 2": 1.20e7}
{"predicted target": "CG5909 (GeneID 43274)", "amplicon": "DRSC15914", "calcium entry signal, replicate 1": 4.12e7, "calcium entry signal, replicate 2": 6.06e7, "resting calcium signal, replicate 1": 2.14e7, "resting calcium signal, replicate 2": 2.56e7}
